This is a selection; strong and weak results do not stand in their true shares. The data scatter; read single values as rough.
Compound: COC(=O)/C=C/c1ccccc1 [methyl cinnamate]
Assay: log2 ratio of iodoacetamide-alkyne labeling of the cysteine site, DMSO over compound (competition); higher = stronger covalent engagement of the cysteine by the compound, active = 1 or more
Conditions: 500 µM; treatment time 1 h; system: HEK293T cell lysate
Method in brief: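 After 1 h at ambient temperature with vehicle or electrophile (500 µM), HEK293T lysate (2 mg/mL) was labelled for 1 h with iodoacetamide alkyne and clicked to sCIP-TMT reagents. Pooled samples were trypsin-digested overnight at 37 °C, streptavidin-enriched, acid-eluted and analysed by Orbitrap Eclipse LC-MS/MS with FAIMS, then quantified in FragPipe over three replicates with duplicate channels. A cysteine's log2 competition ratio is its mean control-channel over mean compound-channel reporter intensity. Cysteines quantified in only one replicate were not included.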

Amino acid sequences for entries named in this document (tags omitted). A change or cut given only in a name is not applied to a line headed by its entry.
UniProt Q9H0K6: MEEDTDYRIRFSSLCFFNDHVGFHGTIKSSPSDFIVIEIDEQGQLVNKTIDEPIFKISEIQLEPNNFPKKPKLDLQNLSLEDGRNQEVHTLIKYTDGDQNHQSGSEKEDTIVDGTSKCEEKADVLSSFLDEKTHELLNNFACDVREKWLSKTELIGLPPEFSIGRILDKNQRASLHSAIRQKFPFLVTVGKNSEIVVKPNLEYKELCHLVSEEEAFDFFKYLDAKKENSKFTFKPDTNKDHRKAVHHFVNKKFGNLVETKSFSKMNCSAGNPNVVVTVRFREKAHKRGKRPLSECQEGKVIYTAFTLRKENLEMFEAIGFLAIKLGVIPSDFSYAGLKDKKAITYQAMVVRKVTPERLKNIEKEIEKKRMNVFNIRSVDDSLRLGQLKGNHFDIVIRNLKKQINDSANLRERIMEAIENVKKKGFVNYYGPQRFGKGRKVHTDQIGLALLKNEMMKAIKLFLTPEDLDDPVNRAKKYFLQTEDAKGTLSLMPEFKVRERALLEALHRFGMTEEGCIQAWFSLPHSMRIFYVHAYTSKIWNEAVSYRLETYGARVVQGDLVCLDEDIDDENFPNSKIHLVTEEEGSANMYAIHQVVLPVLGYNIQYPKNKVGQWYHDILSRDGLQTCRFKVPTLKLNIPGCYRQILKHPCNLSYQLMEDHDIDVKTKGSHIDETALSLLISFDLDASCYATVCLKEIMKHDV
UniProt Q9BY77: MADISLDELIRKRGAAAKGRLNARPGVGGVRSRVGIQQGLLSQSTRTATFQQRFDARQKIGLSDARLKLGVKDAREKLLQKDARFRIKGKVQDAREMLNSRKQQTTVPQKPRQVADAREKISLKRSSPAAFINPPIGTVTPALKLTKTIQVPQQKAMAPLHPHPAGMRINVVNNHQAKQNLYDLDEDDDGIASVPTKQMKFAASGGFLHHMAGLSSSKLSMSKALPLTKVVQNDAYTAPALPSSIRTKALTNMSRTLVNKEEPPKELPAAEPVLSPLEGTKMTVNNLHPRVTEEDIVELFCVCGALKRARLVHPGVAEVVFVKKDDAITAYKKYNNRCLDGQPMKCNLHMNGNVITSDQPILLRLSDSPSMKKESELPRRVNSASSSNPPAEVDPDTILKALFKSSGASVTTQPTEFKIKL
UniProt Q9BRJ6: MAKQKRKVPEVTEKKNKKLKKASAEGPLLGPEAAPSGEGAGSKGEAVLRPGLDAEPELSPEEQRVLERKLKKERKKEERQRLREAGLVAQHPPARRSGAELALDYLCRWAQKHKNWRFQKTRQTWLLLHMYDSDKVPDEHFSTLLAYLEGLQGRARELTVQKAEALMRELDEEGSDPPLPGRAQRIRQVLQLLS
UniProt Q9BTY7: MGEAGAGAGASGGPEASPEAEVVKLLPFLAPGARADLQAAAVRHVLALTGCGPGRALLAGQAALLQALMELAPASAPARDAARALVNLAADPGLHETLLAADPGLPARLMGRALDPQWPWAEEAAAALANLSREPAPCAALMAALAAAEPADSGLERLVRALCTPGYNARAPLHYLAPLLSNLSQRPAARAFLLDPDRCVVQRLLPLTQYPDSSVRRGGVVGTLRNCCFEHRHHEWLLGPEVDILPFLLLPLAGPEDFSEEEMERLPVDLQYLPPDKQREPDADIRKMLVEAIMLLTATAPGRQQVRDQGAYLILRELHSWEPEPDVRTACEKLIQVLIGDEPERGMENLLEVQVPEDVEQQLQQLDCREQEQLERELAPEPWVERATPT
UniProt Q9BW27: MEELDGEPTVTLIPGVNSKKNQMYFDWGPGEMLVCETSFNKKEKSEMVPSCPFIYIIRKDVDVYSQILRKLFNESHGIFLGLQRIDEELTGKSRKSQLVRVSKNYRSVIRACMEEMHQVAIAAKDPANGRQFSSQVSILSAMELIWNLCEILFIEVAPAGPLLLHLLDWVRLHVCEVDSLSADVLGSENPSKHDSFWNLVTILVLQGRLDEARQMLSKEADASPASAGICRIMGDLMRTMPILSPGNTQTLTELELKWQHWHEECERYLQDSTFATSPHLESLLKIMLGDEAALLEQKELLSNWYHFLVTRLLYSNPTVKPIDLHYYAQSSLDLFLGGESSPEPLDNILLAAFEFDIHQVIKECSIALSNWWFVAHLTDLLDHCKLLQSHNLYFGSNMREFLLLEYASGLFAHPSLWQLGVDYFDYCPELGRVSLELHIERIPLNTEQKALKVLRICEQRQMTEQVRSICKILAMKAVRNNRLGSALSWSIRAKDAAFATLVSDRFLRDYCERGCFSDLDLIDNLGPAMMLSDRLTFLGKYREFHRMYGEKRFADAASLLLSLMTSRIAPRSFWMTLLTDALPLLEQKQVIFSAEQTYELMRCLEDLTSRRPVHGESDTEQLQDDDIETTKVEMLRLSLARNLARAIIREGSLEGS
UniProt Q9C0C2: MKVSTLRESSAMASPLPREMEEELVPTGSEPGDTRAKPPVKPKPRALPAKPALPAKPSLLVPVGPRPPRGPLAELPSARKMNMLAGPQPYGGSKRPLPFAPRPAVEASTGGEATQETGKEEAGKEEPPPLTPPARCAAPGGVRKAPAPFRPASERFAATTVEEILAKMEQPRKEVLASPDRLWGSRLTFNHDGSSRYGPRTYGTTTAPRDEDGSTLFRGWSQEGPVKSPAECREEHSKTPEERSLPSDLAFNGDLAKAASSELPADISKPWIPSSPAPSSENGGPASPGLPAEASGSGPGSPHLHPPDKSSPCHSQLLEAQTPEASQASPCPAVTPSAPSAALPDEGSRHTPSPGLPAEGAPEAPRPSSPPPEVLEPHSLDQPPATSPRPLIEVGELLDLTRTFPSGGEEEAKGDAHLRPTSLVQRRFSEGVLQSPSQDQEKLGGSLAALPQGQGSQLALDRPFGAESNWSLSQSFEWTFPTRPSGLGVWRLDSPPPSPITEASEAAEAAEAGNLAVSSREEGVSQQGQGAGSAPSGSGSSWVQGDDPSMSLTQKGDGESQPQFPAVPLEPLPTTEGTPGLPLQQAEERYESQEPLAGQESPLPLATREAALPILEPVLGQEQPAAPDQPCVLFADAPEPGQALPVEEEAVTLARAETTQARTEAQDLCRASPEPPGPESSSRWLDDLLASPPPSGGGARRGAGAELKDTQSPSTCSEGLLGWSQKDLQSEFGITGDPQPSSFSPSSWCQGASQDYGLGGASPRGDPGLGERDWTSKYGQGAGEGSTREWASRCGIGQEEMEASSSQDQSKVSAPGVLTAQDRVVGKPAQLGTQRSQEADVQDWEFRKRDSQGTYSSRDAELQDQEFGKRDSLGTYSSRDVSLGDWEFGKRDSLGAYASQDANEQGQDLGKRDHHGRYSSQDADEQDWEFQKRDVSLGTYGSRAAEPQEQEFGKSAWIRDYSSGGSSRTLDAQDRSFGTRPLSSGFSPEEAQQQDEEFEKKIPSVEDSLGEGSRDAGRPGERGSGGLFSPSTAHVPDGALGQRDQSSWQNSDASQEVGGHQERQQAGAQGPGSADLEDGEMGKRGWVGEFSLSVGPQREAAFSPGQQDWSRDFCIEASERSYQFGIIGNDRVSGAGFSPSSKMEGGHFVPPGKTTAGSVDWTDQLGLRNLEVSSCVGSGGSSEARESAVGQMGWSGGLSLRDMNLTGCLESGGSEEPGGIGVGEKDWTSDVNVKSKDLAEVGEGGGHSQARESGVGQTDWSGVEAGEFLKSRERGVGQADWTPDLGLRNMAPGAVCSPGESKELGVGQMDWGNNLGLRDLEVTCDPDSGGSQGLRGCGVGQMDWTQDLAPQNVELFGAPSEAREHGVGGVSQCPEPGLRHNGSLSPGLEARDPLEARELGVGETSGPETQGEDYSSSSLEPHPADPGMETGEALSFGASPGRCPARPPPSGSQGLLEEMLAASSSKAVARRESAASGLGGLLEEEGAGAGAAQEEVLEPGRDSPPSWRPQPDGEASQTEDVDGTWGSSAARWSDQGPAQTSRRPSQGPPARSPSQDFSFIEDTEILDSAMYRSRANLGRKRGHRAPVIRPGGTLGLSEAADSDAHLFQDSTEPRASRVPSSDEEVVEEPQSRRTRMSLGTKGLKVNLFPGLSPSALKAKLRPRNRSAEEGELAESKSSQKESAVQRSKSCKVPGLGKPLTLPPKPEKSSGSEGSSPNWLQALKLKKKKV
UniProt Q9BV68: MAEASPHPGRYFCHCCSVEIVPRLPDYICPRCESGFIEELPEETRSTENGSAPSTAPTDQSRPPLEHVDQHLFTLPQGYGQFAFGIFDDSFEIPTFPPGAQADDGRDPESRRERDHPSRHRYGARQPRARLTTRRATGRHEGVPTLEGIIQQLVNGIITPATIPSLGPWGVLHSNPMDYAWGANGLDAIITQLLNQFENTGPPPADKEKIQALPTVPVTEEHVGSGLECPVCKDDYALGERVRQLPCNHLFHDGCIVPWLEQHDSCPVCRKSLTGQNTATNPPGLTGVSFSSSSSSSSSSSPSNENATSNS
UniProt Q9BTA9: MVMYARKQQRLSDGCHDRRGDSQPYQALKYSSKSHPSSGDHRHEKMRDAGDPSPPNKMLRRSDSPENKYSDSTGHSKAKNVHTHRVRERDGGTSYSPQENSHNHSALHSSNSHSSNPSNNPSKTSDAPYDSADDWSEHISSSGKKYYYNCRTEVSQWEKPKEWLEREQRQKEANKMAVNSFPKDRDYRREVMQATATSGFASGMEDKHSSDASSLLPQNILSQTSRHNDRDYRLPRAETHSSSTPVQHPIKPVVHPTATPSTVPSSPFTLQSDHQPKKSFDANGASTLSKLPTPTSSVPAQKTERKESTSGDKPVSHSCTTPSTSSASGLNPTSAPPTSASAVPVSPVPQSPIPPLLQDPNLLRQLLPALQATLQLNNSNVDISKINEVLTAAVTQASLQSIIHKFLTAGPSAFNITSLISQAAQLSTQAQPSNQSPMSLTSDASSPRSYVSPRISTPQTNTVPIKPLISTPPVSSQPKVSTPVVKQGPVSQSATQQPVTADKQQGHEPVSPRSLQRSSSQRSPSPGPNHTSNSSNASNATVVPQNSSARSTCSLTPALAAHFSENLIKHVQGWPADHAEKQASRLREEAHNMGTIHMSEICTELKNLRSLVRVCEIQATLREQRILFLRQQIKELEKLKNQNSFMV
UniProt Q9BWF3: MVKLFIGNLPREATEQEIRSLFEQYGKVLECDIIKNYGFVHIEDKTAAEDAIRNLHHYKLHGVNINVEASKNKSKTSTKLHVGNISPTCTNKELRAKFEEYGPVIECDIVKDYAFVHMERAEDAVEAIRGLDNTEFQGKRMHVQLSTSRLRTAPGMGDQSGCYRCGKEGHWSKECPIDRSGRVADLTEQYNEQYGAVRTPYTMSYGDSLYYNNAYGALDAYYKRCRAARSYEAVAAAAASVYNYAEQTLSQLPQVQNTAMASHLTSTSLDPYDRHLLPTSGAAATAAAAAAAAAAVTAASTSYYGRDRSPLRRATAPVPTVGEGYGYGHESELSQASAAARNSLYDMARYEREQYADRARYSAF
UniProt Q9H0A0: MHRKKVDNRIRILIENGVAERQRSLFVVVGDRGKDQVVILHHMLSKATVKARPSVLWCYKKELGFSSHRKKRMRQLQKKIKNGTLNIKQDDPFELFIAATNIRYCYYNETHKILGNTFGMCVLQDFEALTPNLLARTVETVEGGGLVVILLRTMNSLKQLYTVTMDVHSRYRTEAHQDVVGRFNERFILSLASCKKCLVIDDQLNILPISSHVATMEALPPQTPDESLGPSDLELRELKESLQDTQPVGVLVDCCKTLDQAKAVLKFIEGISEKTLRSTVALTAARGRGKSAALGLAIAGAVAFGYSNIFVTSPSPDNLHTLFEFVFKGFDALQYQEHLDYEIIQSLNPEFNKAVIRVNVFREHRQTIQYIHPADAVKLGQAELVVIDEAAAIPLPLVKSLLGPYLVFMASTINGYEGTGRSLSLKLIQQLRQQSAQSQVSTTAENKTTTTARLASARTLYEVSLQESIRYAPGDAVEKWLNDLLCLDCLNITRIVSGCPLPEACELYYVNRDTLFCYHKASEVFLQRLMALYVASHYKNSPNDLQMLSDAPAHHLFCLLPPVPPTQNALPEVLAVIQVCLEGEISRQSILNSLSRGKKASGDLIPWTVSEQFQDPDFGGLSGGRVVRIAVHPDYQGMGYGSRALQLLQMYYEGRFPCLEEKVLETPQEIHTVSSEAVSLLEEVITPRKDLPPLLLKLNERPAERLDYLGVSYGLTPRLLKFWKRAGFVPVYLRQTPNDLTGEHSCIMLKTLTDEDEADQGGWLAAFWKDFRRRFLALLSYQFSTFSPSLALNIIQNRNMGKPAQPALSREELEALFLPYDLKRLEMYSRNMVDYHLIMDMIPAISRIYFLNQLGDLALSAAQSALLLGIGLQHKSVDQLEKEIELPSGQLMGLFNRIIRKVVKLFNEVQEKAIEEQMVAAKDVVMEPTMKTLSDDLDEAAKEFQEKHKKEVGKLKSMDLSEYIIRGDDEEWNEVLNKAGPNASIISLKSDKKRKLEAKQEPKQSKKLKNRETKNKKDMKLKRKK

log2 ratio of iodoacetamide-alkyne labeling, inactive:
PUS7L C142 (UniProt Q9H0K6) -0.112
POLDIP3 C303 (UniProt Q9BY77) -0.0781
PUS7L C267 (UniProt Q9H0K6) 0.313
C7orf50 C107 (UniProt Q9BRJ6) -0.0202
SRSF8 C3 (UniProt Q9BRL6) 0.295
UniProt Q9BXJ9_C82 0.0594
UniProt Q9BTY7_C51 0.0697
UniProt Q9BTY7_C368 -0.156
NUP85 C515 (UniProt Q9BW27) -0.0126
TNKS1BP1 C716 (UniProt Q9C0C2) 0.379
RNF126 C32 (UniProt Q9BV68) -0.222
WAC C553 (UniProt Q9BTA9) 0.434
DDX23 C692 (UniProt Q9BUQ8) 0.156
RBM4 C31 (UniProt Q9BWF3) -0.213
NAT10 C658 (UniProt Q9H0A0) 0.00927
UniProt Q9BSD7_C110 -0.0745

A run of entries from the list above, as a working copy:
log2 ratio of iodoacetamide-alkyne labeling, inactive:
UniProt Q9BTY7_C368 -0.156
NUP85 C515 (UniProt Q9BW27) -0.0126
